Experimental data published in the supplement of paper PMC10849652.
The list shows a part of the results.

How the values were obtained:
Experiment in all cases: log2 fold change, soluble protein after heating vs DMSO (PISA); higher = thermal stabilisation; K562 cells, 10 uM, 30 min; active = over 0.2 and 3.5 SD of the protein, either way, in both replicates (recomputed)
[1] = compound: CC[C@@H]1C(=O)N(C)c2cnc(Nc3ccc(C(=O)NC4CCN(C)CC4)cc3OC)nc2N1C1CCCC1
Outline: (§1)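 Soluble protein was quantified by TMTpro 16plex LC-MS/MS after channel sums were equalised. It was obtained as the supernatant after 21,000xg for 90 min from pooled aliquots of K562 cells (2×10^6 cells/mL, 10 μM compound, 30 min) heated for 3 min across 48°C-58°C and extracted in PBS with 0.5% NP-40 at 4°C. Thermal stability values are relative to control samples and come from duplicates. They are given as log2 fold changes.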

volasertib = compound: CC[C@@H]1C(=O)N(C)c2cnc(Nc3ccc(C(=O)N[C@H]4CC[C@H](N5CCN(CC6CC6)CC5)CC4)cc3OC)nc2N1C(C)C [volasertib]
Outline: as §1

[2] = compound: CC[C@H](C)N1C=C(C2=C(C=C(C=C21)C3=CN=C(C=C3)N4CCNCC4)C(=O)NCC5=C(C=C(NC5=O)C)C)C
Outline: as §1

epoxomicin = compound: CC[C@H](C)[C@@H](C(=O)N[C@@H]([C@@H](C)O)C(=O)N[C@@H](CC(C)C)C(=O)[C@]1(CO1)C)NC(=O)[C@H]([C@@H](C)CC)N(C)C(=O)C [epoxomicin]
Outline: as §1

[3] = compound: CCn1cc(-c2ccnc3[nH]c(-c4cccc(CN(C)C)c4)cc23)c(-c2ccc(NC(=O)N(C)C)cc2)n1
Outline: as §1

[4] = compound: CN(C)CC(=O)Nc1ccc2[nH]c(=O)c3ccccc3c2c1
Outline: as §1

[5] = compound: CN1C2=C(C3=C1C(=O)N(N=C3)CC4=CC(=CC=C4)N)SC(=C2)S(=O)C
Outline: as §1

[6] = compound: CN1CCC(CNc2ccc3ncc(-c4cccc(OC(F)(F)F)c4)n3n2)CC1
Outline: as §1

saracatinib = compound: CN1CCN(CCOc2cc(OC3CCOCC3)c3c(Nc4c(Cl)ccc5c4OCO5)ncnc3c2)CC1 [saracatinib]
Outline: as §1

sotrastaurin = compound: CN1CCN(c2nc(C3=C(c4c[nH]c5ccccc45)C(=O)NC3=O)c3ccccc3n2)CC1 [sotrastaurin]
Outline: as §1

Tubastatin A = compound: CN1CCc2c(c3ccccc3n2Cc2ccc(C(=O)NO)cc2)C1 [Tubastatin A]
Outline: as §1

[7] = compound: CNC(=O)C1=CC=CC=C1NC2=NC(=NC=C2Cl)NC3=C(C=C(C=C3)N4CCOCC4)OC
Outline: as §1

defactinib = compound: CNC(=O)c1ccc(Nc2ncc(C(F)(F)F)c(NCc3nccnc3N(C)S(C)(=O)=O)n2)cc1 [defactinib]
Outline: as §1

rucaparib = compound: CNCc1ccc(-c2[nH]c3cc(F)cc4c3c2CCNC4=O)cc1 [rucaparib]
Outline: as §1

[8] = compound: CNc1nc(-c2ccc3c(N)n[nH]c3c2)cc(N2C[C@@H](C(=O)NC3CCCCC3)CC[C@H]2C)n1
Outline: as §1

encorafenib = compound: COC(=O)N[C@@H](C)CNc1nccc(-c2cn(C(C)C)nc2-c2cc(Cl)cc(NS(C)(=O)=O)c2F)n1 [encorafenib]
Outline: as §1

[9] = compound: COC(=O)[C@H](CCSC)NC(=O)C1=C(C=C(C=C1)NC[C@H](CS)N)C2=CC=CC=C2
Outline: as §1

[10] = compound: CCn1c(C(=O)N(C2CC2)C2CC2)cc2c3c(ncn3C)c(Nc3cc(C)n(C)n3)nc21
Outline: as §1

rosiglitazone = compound: CN(CCOC1=CC=C(C=C1)C[C@H]2C(=O)NC(=O)S2)C3=CC=CC=N3 (racemic) [rosiglitazone]
Outline: as §1

alvocidib = compound: CN1CC[C@H](c2c(O)cc(O)c3c(=O)cc(-c4ccccc4Cl)oc23)[C@H](O)C1 [alvocidib]
Outline: as §1

Measured: log2 fold change

PPP1R12C (UniProt Q9BZL4)
inactive: [1] 0.029 | volasertib -0.027 | [2] 0.204 | epoxomicin -0.102 | [3] -0.116 | [4] -0.03 | [5] 0.013 | [6] 0.029 | saracatinib -0.115 | sotrastaurin -0.157 | Tubastatin A 0.014 | [7] 0.113 | defactinib -0.205 | rucaparib 0.184 | [8] -0.164 | encorafenib -0.013 | [9] 0.035

PRPF40A (UniProt O75400)
inactive: [1] -0.036 | volasertib -0.216 | [2] 0.089 | epoxomicin 0.022 | [3] 0.065 | [4] 0.036 | [5] 0.074 | [6] -0.04 | saracatinib -0.026 | sotrastaurin -0.099 | Tubastatin A 0.103 | [7] -0.197 | defactinib -0.219 | rucaparib 0.029 | [8] -0.03 | encorafenib 0.026 | [9] -0.024

PRPH isoform 2 (UniProt P41219)
inactive: [1] 0.096 | volasertib 0.249 | [2] -0.051 | [10] -0.171 | [3] 0.289 | [4] -0.076 | rosiglitazone -0.18 | [5] 0.492 | [6] 0.215 | saracatinib -0.161 | sotrastaurin -0.131 | alvocidib 0.113 | Tubastatin A -0.027 | [7] -0.033 | defactinib 0.199 | rucaparib 0 | [8] -0.106 | encorafenib 0.069 | [9] 0.083

PRKAR2B (UniProt P31323)
active: [6] -0.495 | sotrastaurin -0.486
inactive: [1] -0.037 | volasertib 0.053 | [2] 0.056 | epoxomicin 0.025 | [3] -0.023 | [4] -0.008 | [5] 0.005 | saracatinib -0.024 | Tubastatin A 0.02 | [7] -0.168 | defactinib -0.191 | rucaparib 0.086 | [8] 0.014 | encorafenib 0.069 | [9] -0.004

PRKAR2A (UniProt P13861)
inactive: [1] 0.03 | volasertib -0.024 | [2] 0.046 | epoxomicin -0.031 | [3] -0.033 | [4] 0.047 | [5] 0.077 | [6] 0.023 | saracatinib 0.034 | sotrastaurin -0.121 | Tubastatin A -0.029 | [7] 0.027 | defactinib -0.02 | rucaparib -0.015 | [8] -0.04 | encorafenib 0.017 | [9] -0.015

PRKAB2 (UniProt O43741)
inactive: [1] 0.085 | volasertib -0.185 | [2] 0.022 | epoxomicin 0.205 | [3] -0.089 | [4] 0.067 | [5] 0.043 | [6] -0.247 | saracatinib -0.064 | sotrastaurin -0.077 | Tubastatin A 0.039 | [7] -0.159 | defactinib -0.084 | rucaparib -0.371 | [8] -0.022 | encorafenib 0.118 | [9] -0.036

PPP2R1B (UniProt H0YDG7)
inactive: [1] -0.117 | [2] -0.092 | [3] 0.044 | rosiglitazone -0.299 | [6] -0.671 | sotrastaurin 0.332 | alvocidib 0.117 | Tubastatin A 0.086 | rucaparib 0.158 | encorafenib -0.224

PRIM1 (UniProt P49642)
inactive: [1] -0.097 | volasertib -0.249 | [2] 0.093 | epoxomicin 0.088 | [3] -0.018 | [4] 0.117 | [5] 0.052 | [6] -0.12 | saracatinib -0.109 | sotrastaurin -0.111 | Tubastatin A 0.042 | [7] 0.116 | defactinib -0.107 | rucaparib 0.084 | [8] 0.051 | encorafenib 0.153 | [9] -0.082

PRDM2 (UniProt Q13029)
inactive: [1] 0.055 | volasertib -0.02 | [2] 0.434 | epoxomicin 0.007 | [3] 0.046 | [4] -0.411 | [5] 0.015 | [6] 0.141 | saracatinib 0.004 | alvocidib 0.236 | Tubastatin A 0.019 | defactinib 0.392 | rucaparib -0.005 | [8] 0.074 | encorafenib 0.223 | [9] 0.408

PPP2R2A, A0A590UJJ1
inactive: [3] -0.04 | [6] 0.155

PRELID1 (UniProt Q9Y255)
inactive: volasertib 0.116 | [2] -0.011 | epoxomicin 0.164 | [10] 0.049 | [3] -0.049 | [4] -0.025 | rosiglitazone -0.09 | [6] 0.099 | sotrastaurin 0.051 | Tubastatin A 0.234 | [7] -0.049 | defactinib 0.07 | [9] -0.089

PRPF6 (UniProt O94906)
inactive: epoxomicin 0.104 | [10] -0.061 | [3] 0.103 | rosiglitazone -0.094 | [5] -0.118 | [6] 0.146 | saracatinib 0.049 | sotrastaurin 0.009 | Tubastatin A 0.221 | [7] 0.137 | [8] -0.068

PRKD2 isoform 3 (UniProt Q9BZL6)
active: volasertib -0.674
inactive: [2] 0.149 | epoxomicin 0.049 | [3] -0.089 | [4] 0.042 | [5] 0.056 | [6] -0.316 | saracatinib -0.031 | sotrastaurin -0.273 | Tubastatin A 0 | [7] -0.242 | defactinib -0.004 | [8] -0.075 | [9] -0.024

PRKD3 (UniProt O94806)
inactive: [3] -0.125 | [4] 0.059 | [5] -0.002 | [6] -0.418 | saracatinib 0.023 | sotrastaurin -0.31 | [7] -0.335 | defactinib -0.068 | [8] 0.002 | [9] -0.058

PPP1R21 (UniProt Q6ZMI0)
inactive: volasertib -0.295 | [2] -0.181 | epoxomicin 0.063 | [10] -0.028 | [3] -0.037 | [4] 0.04 | rosiglitazone -0.082 | [5] 0.131 | [6] -0.17 | saracatinib -0.155 | sotrastaurin -0.059 | alvocidib -0.1 | [7] -0.044 | defactinib -0.185 | [8] -0.073 | [9] 0.151

PPP1R12B isoform 6 (UniProt O60237)
inactive: [2] 0.088 | [7] 0

PPP2R3B (UniProt Q9Y5P8)
inactive: [2] 0.009 | epoxomicin -0.064 | [4] 0.121 | Tubastatin A 0.029 | defactinib 0.173 | [9] -0.195

PRH1 (UniProt P02810)
inactive: [2] 0.213

PRF1 (UniProt P14222)
inactive: volasertib 0.041 | epoxomicin 0.113 | [10] -0.073 | rosiglitazone 0.108 | sotrastaurin 0.096 | [7] -0.162

PRKX (UniProt P51817)
inactive: [7] -0.139

Two entries drawn at random from the list so far:
PRKAR2A (UniProt P13861)
inactive: [1] 0.03 | volasertib -0.024 | [2] 0.046 | epoxomicin -0.031 | [3] -0.033 | [4] 0.047 | [5] 0.077 | [6] 0.023 | saracatinib 0.034 | sotrastaurin -0.121 | Tubastatin A -0.029 | [7] 0.027 | defactinib -0.02 | rucaparib -0.015 | [8] -0.04 | encorafenib 0.017 | [9] -0.015

PRKD3 (UniProt O94806)
inactive: [3] -0.125 | [4] 0.059 | [5] -0.002 | [6] -0.418 | saracatinib 0.023 | sotrastaurin -0.31 | [7] -0.335 | defactinib -0.068 | [8] 0.002 | [9] -0.058

Next part

PPTC7 (UniProt Q8NI37)
inactive: epoxomicin -0.078 | [3] 0.002 | [4] 0.002 | [6] 0.205 | defactinib -0.059 | [9] 0.018

PRELID3B (UniProt Q9Y3B1)
inactive: volasertib -0.057 | epoxomicin 0.161 | [10] 0.318 | [3] -0.246 | [6] -0.393 | Tubastatin A 0.074 | [7] 0.325

PRRG1 (UniProt O14668)
inactive: volasertib 0.01 | [3] -0.024 | [6] -0.022

PPP2CB (UniProt E5RHC1)
inactive: [10] 0.068 | [7] -0.176

PRPF39 (UniProt Q86UA1)
inactive: volasertib -0.563 | [5] -0.042 | saracatinib -0.113 | alvocidib -0.382 | Tubastatin A 0.237 | [8] -0.038

PRMT2 (UniProt P55345)
inactive: sotrastaurin -0.034

PRNP (UniProt P04156)
inactive: [10] 0.006 | [3] -0.011 | rosiglitazone -0.144 | [6] -0.169 | sotrastaurin 0.022 | [7] 0.073

PRR14L (UniProt Q5THK1)
inactive: volasertib 0.218 | [2] -0.088 | [3] 0.006 | [4] -0.134 | [6] 0.073 | Tubastatin A 0.053 | defactinib 0.286 | [9] 0.125
